PubChem BioAssay AID652272 – Drosophila RNAi Screening Center | 2013
In all, the deposit lists about 21,000 reagents; this is an unselected part of those with a known target gene and a result. Of all reagents, 503 (2.4%) got an active call. 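Raw plate light values, not normalised; calls rest on replicate z-scores that were not deposited; hits include reporter decreases as well as increases.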 A number with no mark means an inactive call. Reagents against one gene are numbered here. Names joined by + are all predicted targets of the reagent. Not stated in the record: the amount of reagent, the time to read-out.

Assay: 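Genes whose knock-down decreases or increases Hedgehog reporter output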 (primary screen)
Cells: Drosophila clone 8 (Cl8) cells
Reagent: long dsRNA against Drosophila genes
Measured: 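Plate reader light from a firefly reporter under a ptc promoter fragment that responds to Hedgehog, with Renilla light as transfection reference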
Scale: firefly Hh reporter signal: higher = more ptc reporter light; Renilla reference signal: higher = more Renilla control light
Active means: 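Called a hit if the two-replicate mean z-score lies below -2 or above +3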
Calls: active = hit: reporter lowered or raised; inactive = not a hit

| firefly Hh reporter signal, replicate 1 | firefly Hh reporter signal, replicate 2 | firefly Hh reporter signal, replicate 3 | Renilla reference signal, replicate 1 | Renilla reference signal, replicate 2 | gene knocked down | reagent no. |
| --- | --- | --- | --- | --- | --- | --- |
| 72492 | 35482 | – | 1338 | 2688 | CG30037 | 1 |
| 76573 | 73604 | – | 1952 | 2005 | Arpc5 | 1 |
| 1.26e5 | 3.32e5 | – | 2872 | 11121 | dmrt11E | 1 |
| 1.06e5 | 53597 | – | 4612 | 2596 | CycY | 1 |
| 65925 | 1.89e5 | – | 2339 | 6727 | CG17982 | 1 |
| 60689 | 42359 | – | 3574 | 2272 | CG7879 | 1 |
| 48568 | 1.04e5 | – | 2647 | 3291 | Osi15 | 1 |
| 1.06e5 | 51969 | – | 5029 | 2605 | Roe1 | 1 |
| 45600 | 75140 | 85625 | 7517 | 6413 | Fdx1 | 1 |
| 70268 | 43686 | – | 1865 | 4007 | CG13078 | 1 |
| 91105 | 52267 | – | 2875 | 1690 | mahj | 1 |
| 90361 | 65981 | – | 4861 | 3285 | CCT3 | 1 |
| 82394 | 60016 | – | 4005 | 3219 | CG9143 | 1 |
| 51932 | 1.41e5 | – | 2423 | 6808 | Hsp70Aa + Hsp70Ab | 1 |
| 77100 | 36952 | – | 3000 | 3234 | Fis1 | 1 |
| 1.25e5 | 1.35e5 | – | 4890 | 5130 | koko + Vti1b | 1 |
| 4.84e5 | 99184 | – | 26640 | 3016 | koko + Vti1b | 2 |
| 79360 | 2.45e5 | – | 1853 | 9082 | AP-1-2beta | 1 |
| 99586 | 75762 | – | 3787 | 1908 | qless | 1 |
| 1.26e5 | 94249 | – | 4358 | 2263 | qless | 2 |
| 3.06e5 | – | – | 7078 | – | CG7011 | 1 |
| 47014 | 2.04e5 | – | 11780 | 4332 | lncRNA:CR34024 | 1 |

Looked up above:
Entry of CG13078 in “Renilla reference signal, replicate 1”: 1865
Entry for CCT3 under “firefly Hh reporter signal, replicate 2”: 65981
Under “Renilla reference signal, replicate 2”, Fdx1 shows 6413
Arpc5, firefly Hh reporter signal, replicate 2: 73604
Result for lncRNA:CR34024 in “firefly Hh reporter signal, replicate 1”: 47014
Value for CG30037 in “Renilla reference signal, replicate 2”: 2688

Next entries:
| firefly Hh reporter signal, replicate 1 | firefly Hh reporter signal, replicate 2 | firefly Hh reporter signal, replicate 3 | Renilla reference signal, replicate 1 | Renilla reference signal, replicate 2 | gene knocked down | reagent no. |
| --- | --- | --- | --- | --- | --- | --- |
| 7.84e5 | 1.63e5 | – | 48020 | 2720 | Gr93a | 1 |
| 2.72e5 | 1.18e5 | 3.53e5 | 1813 | 3361 | CG32772 | 1 |
| 1.31e5 | 1.19e5 | – | 2763 | 2390 | CG32772 | 2 |
| 80693 | 62656 | – | 2436 | 1952 | CG31743 + CG34313 | 1 |
| 1.54e5 | 53485 | – | 3719 | 4816 | CG31743 + CG34313 | 2 |
| 2.91e5 | – | – | 6704 | – | Ccn | 1 |
| 1.28e5 | – | – | 5376 | – | Ccn | 2 |
| 1.15e5 | 76240 | – | 5261 | 3360 | Ccn | 3 |
| 75703 | – | – | 5965 | 2541 | Ccn | 4 |
| 1.34e5 | – | – | 2141 | 3334 | hid | 1 |
| 95820 | 90116 | – | 2705 | 2347 | mRpL11 | 1 |
| 1.61e5 | 1.04e5 | – | 3768 | 2736 | CG1572 | 1 |
| 74720 | 24905 | – | 3196 | 1020 | CG4622 | 1 |
| 39322 | 57329 | – | 4323 | 3691 | CG14826 | 1 |
| 2.68e5 | – | – | 5245 | – | lost | 1 |
| 1.81e5 | 7.63e5 | 1.07e5 | 7158 | 44603 | lost | 2 |
| 1.21e5 | 71056 | – | 3208 | 5250 | Cpr62Bc | 1 |
| 99696 | 4.82e5 | 3.63e5 | 2835 | 4675 | CG12672 | 1 |
| 1.06e5 | 1.06e5 | – | 2485 | 2774 | Dd | 1 |
| 1.41e5 | 1.59e5 | – | 3635 | 4790 | CG7646 | 1 |
| 70669 | 60336 | – | 2469 | 1851 | CG5171 | 1 |
| 86409 | 99549 | – | 2363 | 2838 | mtSSB | 1 |
| 71527 | 44668 | – | 2080 | 3003 | SA2 | 1 |
| 84874 | 1.54e5 | – | 2604 | 6707 | Ag5r2 | 1 |
| 1.34e5 | 67277 | – | 4971 | 2979 | CG5567 | 1 |
| 1.11e5 | 63723 | – | 3365 | 6269 | Ripalpha | 1 |
| 1.03e5 | 2.44e5 | – | 3210 | 9269 | qvr | 1 |
| 80070 | 37448 | – | 2691 | 1203 | EMC8-9 | 1 |
| 3.72e5 | 1.02e5 | – | 23188 | 3305 | CG10183 | 1 |
| 1.19e5 | 1.13e5 | – | 5040 | 4905 | CG9641 | 1 |
| 99568 | 79280 | – | 4297 | 3820 | CG11703 | 1 |
| 6.07e5 | 1.61e5 | – | 37824 | 423 | Octbeta1R | 1 |
| 1.45e5 | 1.09e5 | – | 5225 | 3192 | Cpr78Cc | 1 |
| 1.34e5 | 7.65e5 | 3.96e5 | 4700 | 5035 | CG15345 (retired record) | 1 |
| 11433 | 37016 | 38509 | 3829 | 2952 | CG5883 | 1 |
